{"source": "patent US8466107B2", "about": "(Bracco Imaging SpA, priority 2006, dated 2013)", "key": {"[1]": {"experiment": "general procedure: Fmoc solid-phase peptide synthesis; Fmoc-PAL-PEG-PS resin (0.18 mmol/g); HATU/DIEA (manual couplings)", "details": "for isolated mass / isolated yield: whole synthesis; for conjugation yield: conjugation step"}, "[2]": {"experiment": "general procedure: Fmoc solid-phase peptide synthesis; Fmoc-PAL-PEG-PS; HATU/DIEA (manual couplings)", "details": "whole synthesis, scale 0.25 mmol"}, "[3]": {"experiment": "general procedure: Fmoc solid-phase peptide synthesis; TGR; HATU/DIEA (manual couplings)", "details": "whole synthesis, scale 130 μmol"}, "[4]": {"experiment": "general procedure: Fmoc solid-phase peptide synthesis; Fmoc-Pal-Peg-PS resin; HATU/DIEA (manual couplings)", "details": "whole synthesis, scale 0.2 mmol"}, "[5]": {"details": "scale of the general procedure 0.25 mmol"}}, "data": [{"substance": "Ac-GWQPC*PWESWTFC*WDPGGGK(DSPE-PG4-Glut)-NH2 (GWQPCPWESWTFCWDPGGGK; N-acetyl, C-amide, DSPE-PG4-Glut lipid, cyclic 5-13)", "values": [{"measurement": "step yield", "setting": "[1]; lipidation step", "value": 30, "unit": "%"}]}, {"substance": "Ac-GWQPC*PWESWTFC*WDPGGGK-NH2", "values": [{"measurement": "isolated mass", "setting": "[2]", "value": 105, "unit": "mg"}, {"measurement": "isolated yield", "setting": "[2]", "value": 17.8, "unit": "%"}]}, {"substance": "Ac-RWQPC*PAESWT-Cha-C*WDPGGGK(DSPE-PG4-Glut)-NH2", "values": [{"measurement": "step yield", "setting": "[1]; lipidation step", "value": 34, "unit": "%"}]}, {"substance": "Ac-RWQPC*PAESWT-Cha-C*WDPGGGK-NH2", "values": [{"measurement": "isolated mass", "setting": "[1]", "value": 140, "unit": "mg"}, {"measurement": "isolated yield", "setting": "[1]; [5]", "value": 27.5, "unit": "%"}]}, {"substance": "Ac-SGSGJWQPC*PWESWTFC*WDPGGGK(DSPE-PG4-Glut)-NH2", "values": [{"measurement": "step yield", "setting": "[1]; lipidation step", "value": 25.7, "unit": "%"}]}, {"substance": "Ac-SGSGJWQPC*PWESWTFC*WDPGGGK-NH2", "values": [{"measurement": "isolated mass", "setting": "[1]; scale 0.266 mmol", "value": 130, "unit": "mg"}, {"measurement": "isolated yield", "setting": "[1]; scale 0.266 mmol", "value": 18.8, "unit": "%"}]}, {"substance": "Ac-SGSGSGSGWQPC*PWESWTFC*WDPGGGK(DSPE-PG4-Glut)-NH2 (SGSGSGSGWQPCPWESWTFCWDPGGGK; N-acetyl, C-amide, DSPE-PG4-Glut lipid, cyclic 12-20)", "values": [{"measurement": "step yield", "setting": "[1]; lipidation step", "value": 60, "unit": "%"}, {"measurement": "final HPLC purity", "setting": "[1]; lipidation step, analytical HPLC, UV 220 nm (and ELSD for lipopeptides)", "value": ">98", "unit": "%"}]}, {"substance": "Ac-WQPC*PAESWTFC*WDPGGGK(DPPE-PG4-Glut)-NH2", "values": [{"measurement": "step yield", "setting": "[1]; lipidation step", "value": 48, "unit": "%"}]}, {"substance": "Ac-WQPC*PAESWTFC*WDPGGGK(DSPE-PG4-Glut)-NH2 (WQPCPAESWTFCWDPGGGK; N-acetyl, C-amide, DSPE-PG4-Glut lipid, cyclic 4-12)", "values": [{"measurement": "step yield", "setting": "[1]; lipidation step", "value": 44, "unit": "%"}]}, {"substance": "Ac-WQPC*PAESWTFC*WDPGGGK(JJ)-NH2", "values": [{"measurement": "isolated mass", "setting": "[3]", "value": 42, "unit": "mg"}, {"measurement": "isolated yield", "setting": "[3]", "value": 13, "unit": "%"}]}, {"substance": "Ac-WQPC*PAESWTFC*WDPGGGK(NH2-PG2-JJ)-NH2", "values": [{"measurement": "conjugation yield", "setting": "[1]", "value": 47, "unit": "%"}]}, {"substance": "Ac-WQPC*PWESWTFC*WDPGGGK(DPPE-PG4-Glut)-NH2 (WQPCPWESWTFCWDPGGGK; cyclised or stapled)", "values": [{"measurement": "step yield", "setting": "[1]; lipidation step", "value": 52, "unit": "%"}, {"measurement": "final HPLC purity", "setting": "[1]; lipidation step, UV @ 220 nm & ELSD", "value": ">98% (area %)"}]}, {"substance": "Ac-WQPCPAESWTFCWDPGAGSGK(DPPE-Pro9-Glut-Ttda-Dga)-NH2Cyclic (4→12) Peptide (N-acetyl, C-amide, DPPE-Pro9-Glut-Ttda-Dga lipid, cyclic)", "values": [{"measurement": "step yield", "setting": "[1]; lipidation step", "value": 46.5, "unit": "% yield"}]}, {"substance": "Ac-WQPCPAESWTFCWDPGSAGSK(DPPE-Pro9-Glut-Ttda-Dga)-NH2 Cyclic (4→12) Peptide (N-acetyl, C-amide, DPPE-Pro9-Glut-Ttda-Dga lipid, cyclic)", "values": [{"measurement": "step yield", "setting": "[1]; lipidation step", "value": 32.8, "unit": "% yield"}]}, {"substance": "Ac-WQPCPAESWTFCWDPGSAGSK(Dga-Ttda)-NH2", "values": [{"measurement": "isolated mass", "setting": "[4]", "value": 175, "unit": "mg"}, {"measurement": "isolated yield", "setting": "[4]", "value": 16.2, "unit": "% yield"}]}, {"substance": "Aloc-RWQPC*PAESWT-Cha-C*WDPGGGK-NH2", "values": [{"measurement": "isolated mass", "setting": "[1]", "value": 230, "unit": "mg"}, {"measurement": "isolated yield", "setting": "[1]; [5]", "value": 26.7, "unit": "%"}]}, {"substance": "Aloc-RWQPC*PWESWTFC*WDPGGGK-NH2", "values": [{"measurement": "isolated mass", "setting": "[1]; scale 0.54 mmol", "value": 290, "unit": "mg"}, {"measurement": "isolated yield", "setting": "[1]; scale 0.54 mmol", "value": 21, "unit": "%"}]}, {"substance": "Aloe-RWQPC*PAESWTFC*WDPGGGK(CF5)-NH2", "values": [{"measurement": "conjugation yield", "setting": "[1]", "value": 62.8, "unit": "%"}]}, {"substance": "RWQPC*PAESWT-Cha-C*WDPGGGK(DSPE-PG4-Glut)-NH2", "values": [{"measurement": "difficulty met", "setting": "[1]; lipidation step", "value": "HPLC analysis of the isolated product indicated the need for additional purification"}, {"measurement": "step yield", "setting": "[1]; lipidation step", "value": 4.5, "unit": "%"}]}, {"substance": "RWQPC*PAESWTFC*WDPGGGK(CF5)-NH2", "values": [{"measurement": "step yield", "setting": "[1]; late stage modification step", "value": 60.4, "unit": "%"}]}, {"substance": "RWQPC*PWESWTFC*WDPGGGK(DSPE-PG4-Glut)-NH2 (RWQPCPWESWTFCWDPGGGK; C-amide, DSPE-PG4-Glut lipid, cyclic 5-13)", "values": [{"measurement": "step yield", "setting": "[1]; lipidation step, based on the input DSPE-PG4-NH2", "value": 29, "unit": "%"}]}]}
